The list shows a part of the results. Further columns of the screen follow, without active or inactive calls. Compounds called inactive in the main read-out are mostly missing here. The note in brackets gives the kind of curve behind each potency; many fits are weak.
Assay: qHTS Assay for Lipid Storage Modulators in Drosophila S3 Cells;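 for cell number change: cells counted by Cell Tracker Red CMTPX staining in the red channel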
Settings: BODIPY lipid droplet fluorescence, 18-24 h; for cell number change: measured here: cell count max response, cells fed with added oleic acid
Procedure, shortened: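 Drosophila S3 cells got compounds at several concentrations plus oleic acid (400 uM solution). Laser-scanning cytometry with 488 nm excitation read lipid droplets at 500-530 nm and cells at 575-640 nm. Percent activity was relative to 20 uM Triacsin C.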

[1] = measured here: cell number channel AC50, cells fed with added oleic acid
[2] = measured here: lipid fluorescence (Fed channel) AC50, cells fed with added oleic acid

SMILES	cell number change [%]	AC50 [1]	AC50 [2]
Cc1ccc(NCC(=O)Nc2c(C)n(C)n(-c3ccccc3)c2=O)cc1S(=O)(=O)N(C)C	-7.58	–	–
Cc1ccc(NC(=O)CSc2nc(=O)n3cc(C)ccc3n2)c(C)c1	35.3	0.164 µM [rising, full curve]	–
COc1ccc2c(CC(=O)N3CCN(S(=O)(=O)c4ccc(F)cc4)CC3)coc2c1	-2.33	–	29.1 µM [rising, single point]
CCOc1ccc(C2NC(=O)NC(C)=C2[N+](=O)[O-])cc1OC (configuration not stated)	0.815	–	3.26 µM [falling, single point]
O=C(NC(Nc1nc2ccccc2s1)(C(F)(F)F)C(F)(F)F)c1ccccc1	20.2	–	6.51 µM [rising, single point]
CCOC(=O)C1=C(C)NC(=S)NC1C (configuration not stated)	-74.3	32.6 µM [falling, partial curve, poor fit]	–
CCc1cc2c(=O)c(-c3nc(C)cs3)coc2cc1O	17.3	–	29.1 µM [rising, single point]
CC(NC(=O)CN1CCN(Cc2cccc(F)c2)CC1)c1ccccc1 (configuration not stated)	-34.8	6.51 µM [falling, full curve, poor fit]	–
O=C(c1cc(=O)c2ccccc2o1)N1CCN(c2ccccc2)CC1	–	–	0.731 µM [rising, partial curve, poor fit]
S=C(Nc1ccc(Br)cc1)NC1CCCC1	–	–	29.1 µM [falling, single point]
CN1/C(=C/C2CC(=O)NC2=O)C(C)(C)c2ccccc21 (configuration not stated)	47.4	29.1 µM [rising, single point]	–
CC(=O)NCCC(=O)Nc1nc2c(ccc3ccccc32)s1	42.3	0.13 µM [rising, full curve, poor fit]	29.1 µM [falling, single point]
CCOc1ccc(/C=C2/Sc3ccc(C(=O)NCC4CCCO4)cc3N(C)C2=O)cc1OC (configuration not stated)	-15.7	–	3.66 µM [falling, full curve]
Cc1ccc(C(=O)c2ccccc2C(=O)OCC(=O)Nc2cccc([N+](=O)[O-])c2)cc1	-11.4	–	5.8 µM [rising, partial curve]
COc1ccc(C2C(C#N)=C(N)Nc3onc(C(C)(C)C)c32)c(OC)c1 (configuration not stated)	-1.22	–	0.731 µM [falling, full curve, poor fit]
O=C(O)c1ccc(CSc2nnc(-c3ccccc3Br)o2)cc1	36.5	–	–
C/C(=N\OC(=O)c1ccc(OC(C)C)cc1)c1ccc(C)c(C)c1	80.5	18.4 µM [rising, single point]	0.231 µM [falling, full curve, poor fit]
Cc1sc(NC(=S)NC(=O)c2ccco2)c(C#N)c1C	-10.7	0.116 µM [falling, full curve, poor fit]	–
Cc1cc(C(=O)Nc2nnc(C(F)(F)F)s2)no1	–	5.17 µM [falling, single point]	–

SMILES	cell number change [%]	AC50 [1]	AC50 [2]
CCOC(=O)c1nn(-c2ccc3c(c2)OCO3)cc1O	-9.29	–	25.9 µM [rising, single point]
O=C(CCc1n[nH]c(=O)[nH]c1=O)N/N=C/c1ccc(Br)o1	-21.6	–	16.4 µM [falling, single point]
O=C(Nc1ccc(F)cc1)C1CCN(c2ncnc3c2nc2n3CCCCC2)CC1	15.6	–	–
COc1ccc(Cl)cc1NC(=O)CSc1nnc(C)c(=O)n1N	7.92	–	18.4 µM [rising, single point]
CCCCOc1ccccc1C(=O)NCCCC(=O)O	34.9	14.6 µM [rising, single point]	20.6 µM [rising, single point]
COC(=O)CCS(=O)(=O)c1ccc(Cl)cc1	35	29.1 µM [rising, single point]	–
C[C@@H](C(=O)Nc1ccc2ccccc2c1)[C@H]1C[C@]1(C)[C@H](NS(=O)(=O)c1ccccc1)c1ccccc1	-2.04	–	–
COC(=O)/C(=C1/Oc2ccc(C(C)(C)C)cc2S1)C(F)(F)F	-0.0822	–	2.91 µM [falling, partial curve, poor fit]
CN(C)C(=O)c1nc(C#N)c(N(C)C)o1	–	0.651 µM [rising, single point]	0.58 µM [rising, single point]
CCOc1ccccc1C(=O)Nc1cnn(Cc2ccc(F)cc2)c1	–	2.06 µM [rising, partial curve]	–
CC1=NN(c2ccccc2)C(=O)/C1=C/C=C/c1ccc(N(C)C)cc1	-58.2	11.6 µM [falling, partial curve, poor fit]	14.6 µM [falling, partial curve]
CC(=O)OCC1OC(OC(C)=O)C(NC(=O)c2cccnc2)C(OC(C)=O)C1OC(C)=O (configuration not stated)	–	0.461 µM [rising, single point]	–
CC1=Nc2ccccc2/C1=C\c1nc(-c2ccccc2)oc1O	20.4	1.64 µM [rising, full curve, poor fit]	3.26 µM [rising, partial curve]
CCOC(=O)c1snc2c(=O)[nH]cnc12	5.8	5.17 µM [falling, partial curve, poor fit]	1.64 µM [falling, partial curve]
COc1ccccc1N(CN1CCCC1=O)C(=O)c1c(F)cccc1Cl	-67.9	29.1 µM [falling, single point]	–
CC1CCCN(S(=O)(=O)Cc2ccc(Cl)cc2)C1 (configuration not stated)	–	0.146 µM [falling, full curve]	0.731 µM [falling, full curve]
CCCC(c1nnnn1CS(=O)(=O)c1ccc(C)cc1)N1CCN(c2ccc(F)cc2)CC1 (configuration not stated)	–	4.61 µM [rising, single point]	–
CCN(CC)c1ccc(NC(=O)c2c(OC)cccc2OC)c(C)c1	-19.1	–	4.61 µM [rising, partial curve]
O=C(NCC(=O)N1CCN(C(c2ccccc2)c2ccccc2)CC1)c1ccc(Br)o1	-22.3	–	0.58 µM [rising, single point]

From PubChem BioAssay AID2685 (National Center for Advancing Translational Sciences (NCATS), 2010)
